Data on four sequences can be found in publication PMC4870678.

This data set concerns the target T1, PBR1 (RLSB) (Arabidopsis thaliana) (UniProt Q9M9H4).
T1 sequence (looked up): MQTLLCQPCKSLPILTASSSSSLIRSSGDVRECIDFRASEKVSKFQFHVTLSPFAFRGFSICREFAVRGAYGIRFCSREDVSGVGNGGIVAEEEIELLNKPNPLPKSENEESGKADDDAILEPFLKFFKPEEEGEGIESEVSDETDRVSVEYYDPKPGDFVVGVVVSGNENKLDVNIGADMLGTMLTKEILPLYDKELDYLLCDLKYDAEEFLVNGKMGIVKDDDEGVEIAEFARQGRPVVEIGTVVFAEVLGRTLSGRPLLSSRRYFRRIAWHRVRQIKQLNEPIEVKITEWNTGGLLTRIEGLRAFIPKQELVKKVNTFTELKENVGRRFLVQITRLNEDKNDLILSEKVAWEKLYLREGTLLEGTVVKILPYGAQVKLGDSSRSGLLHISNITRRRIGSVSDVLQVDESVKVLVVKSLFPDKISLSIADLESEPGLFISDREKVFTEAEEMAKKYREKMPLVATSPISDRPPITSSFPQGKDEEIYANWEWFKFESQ
The experiment in a line: EMSA. The conditions noted are these: 20 mM HEPES pH 8.0, 50 mM KCl, 10 mM MgCl2, 0.5 mM DTT, 0.2 ug/ul tRNA, 0.1 ug/ul BSA, 4% glycerol, 30 min on ice, 6% native PAGE in 0.5x TBE at 4 C, recombinant protein, residues 1-500, protein details: 6xHis (pET28-a, BamHI/EcoRI), probe letters rebuilt from the primers and the genome.

Negatives hold for the conditions tested. Tags and fusion partners may be left off the protein sequences shown. The exact form of at least one protein or probe is not confirmed. A weaker result is weaker than the reference pair of the same experiment.

As for “GGGUGAUUAGUUGAUAAUUUUGUGAAAGAUUCCUGUGAAAAAGGUUAAUUAAAUCUAUUCCUAAUUUAUGUCGAGUAGACCUUGUUGUUUUGUUUUAUUGCAAGAAUUCUAAAUUCAUGACUUGUAGGGAGGGACUU [rbcL 5'-UTR RNA]”, the binding result (strong signal, called nonspecific, not competed by 125x cold rbcL 5'-UTR, part of a longer molecule) was “binds”. With “GGGUAUCCCUUUGGUGUCAUUGACAUAAGAGAUGUCGUUUCUAGUCUAUCUCUUUCUAUUUCUAUAUAUGGAAAGUUGCAAAAUCAUCAUAUAAUAAUCCAGAAAUUGAAAUAGAAAAGAAAAAAGGGAGGUUUGUG [Ycf1 5'-UTR RNA]”, the binding result is given as “binds” (150 mM NaCl, binding largely unchanged, label: biotin-16-UTP (internal, body labeled), part of a longer molecule) and “binds” (cold probe competition confirmed specificity, label: biotin-16-UTP (internal, body labeled), part of a longer molecule). As for “GGGUCAUAAAUACUUUUUACUAUAUAUAAUAAGUUACGGUAUAUGAAAACAACUAUAUGCACAAAUAUGAGGGAUUGUUUUAAAUUAAAUCUUUAUACAUGAGAUUAAUUUAAUCAAUCACAUAGAUACCAAUUAU [Ycf1 3'-UTR RNA]”, under “lower affinity than Ycf1 5'-UTR, label: biotin-16-UTP (internal, body labeled), part of a longer molecule”, the binding result is “binds more weakly”. Regarding “GGGAAUUCUAAGUAUCUAUCAUCGGUUCACUAAUUACUUGAGUGACUGUUGGCGGGUUUCUUUGUAUGUGUUGUCCGGAAAGAGGAGGACUCA [psaA 5'-UTR RNA]”, where the note is “no detectable binding signal, label: biotin-16-UTP (internal), part of a longer …”, the binding result is on record as “no binding”.
